According to doi:10.1101/2023.12.14.571674:
No constants are given. Whether binding was seen depends on the method and setting. Binding seen in cells or lysates may run through a third protein. Here binding means that the protein was enriched with, or labelled near, the bait; the list need not be complete. Blank lines part the entries; values can stand above or below the binder they belong to.

Target: insulin receptor (human (endogenous in HepG2))
Experiment: affinity purification with mass spectrometry

binding: binds
B1: tyrosine-protein phosphatase non-receptor type 14 (PTPN14) (enzyme, UniProt Q15678 1-1187)
chain: MPFGLKLRRTRRYNVLSKNCFVTRIRLLDSNVIECTLSVESTGQECLEAVAQRLELRETHYFGLWFLSKSQQARWVELEKPLKKHLDKFANEPLLFFGVMFYVPNVSWLQQEATRYQYYLQVKKDVLEGRLRCTLDQVIRLAGLAVQADFGDYNQFDSQDFLREYVLFPMDLALEEAVLEELTQKVAQEHKAHSGILPAEAELMYINEVERLDGFGQEIFPVKDNHGNCVHLGIFFMGIFVRNRIGRQAVIYRWNDMGNITHNKSTILVELINKEETALFHTDDIENAKYISRLFATRHKFYKQNKICTEQSNSPPPIRRQPTWSRSSLPRQQPYILPPVHVQCGEHYSETHTSQDSIFHGNEEALYCNSHNSLDLNYLNGTVTNGSVCSVHSVNSLNCSQSFIQASPVSSNLSIPGSDIMRADYIPSHRHSAIIVPSYRPTPDYETVMRQMKRGILHTDSQSQSLRNLNIINTHAYNQPEDLVYSQPEMRERHPYTVPYGPQGVYSNKLVSPSDQRNPKNNVVPSKPGASAISHTVSTPELANMQLQGSHNYSTAHMLKNYLFRPPPPYPRPRPATSTPDLASHRHKYVSGSSPDLVTRKVQLSVKTFQEDSSPVVHQSLQEVSEPLTATKHHGTVNKRHSLEVMNSMVRGMEAMTLKSLHLPMARRNTLREQGPPEEGSGSHEVPQLPQYHHKKTFSDATMLIHSSESEEEEEEAPESVPQIPMLREKMEYSAQLQAALARIPNKPPPEYPGPRKSVSNGALRQDQASLPPAMARARVLRHGPAKAISMSRTDPPAVNGASLGPSISEPDLTSVKERVKKEPVKERPVSEMFSLEDSIIEREMMIRNLEKQKMAGLEAQKRPLMLAALNGLSVARVSGREENRVDATRVPMDERFRTLKKKLEEGMVFTEYEQIPKKKANGIFSTAALPENAERSRIREVVPYEENRVELIPTKENNTGYINASHIKVVVGGAEWHYIATQGPLPHTCHDFWQMVWEQGVNVIAMVTAEEEGGRTKSHRYWPKLGSKHSSATYGKFKVTTKFRTDSVCYATTGLKVKHLLSGQERTVWHLQYTDWPDHGCPEDVQGFLSYLEEIQSVRRHTNSMLEGTKNRHPPIVVHCSAGVGRTGVLILSELMIYCLEHNEKVEVPMMLRLLREQRMFMIQTIAQYKFVYQVLIQFLQNSRLI

binding: binds
B2: diacylglycerol kinase epsilon (DGKE) (enzyme, UniProt P52429 1-567)
chain: MEAERRPAPGSPSEGLFADGHLILWTLCSVLLPVFITFWCSLQRSRRQLHRRDIFRKSKHGWRDTDLFSQPTYCCVCAQHILQGAFCDCCGLRVDEGCLRKADKRFQCKEIMLKNDTKVLDAMPHHWIRGNVPLCSYCMVCKQQCGCQPKLCDYRCIWCQKTVHDECMKNSLKNEKCDFGEFKNLIIPPSYLTSINQMRKDKKTDYEVLASKLGKQWTPLIILANSRSGTNMGEGLLGEFRILLNPVQVFDVTKTPPIKALQLCTLLPYYSARVLVCGGDGTVGWVLDAVDDMKIKGQEKYIPQVAVLPLGTGNDLSNTLGWGTGYAGEIPVAQVLRNVMEADGIKLDRWKVQVTNKGYYNLRKPKEFTMNNYFSVGPDALMALNFHAHREKAPSLFSSRILNKAVYLFYGTKDCLVQECKDLNKKVELELDGERVALPSLEGIIVLNIGYWGGGCRLWEGMGDETYPLARHDDGLLEVVGVYGSFHCAQIQVKLANPFRIGQAHTVRLILKCSMMPMQVDGEPWAQGPCTVTITHKTHAMMLYFSGEQTDDDISSTSDQEDIKATE

binding: binds
B3: LIN7A (protein, UniProt O14910 1-233)
chain: MLKPSVTSAPTADMATLTVVQPLTLDRDVARAIELLEKLQESGEVPVHKLQSLKKVLQSEFCTAIREVYQYMHETITVNGCPEFRARATAKATVAAFAASEGHSHPRVVELPKTDEGLGFNVMGGKEQNSPIYISRIIPGGVAERHGGLKRGDQLLSVNGVSVEGEHHEKAVELLKAAKDSVKLVVRYTPKVLEEMEARFEKLRTARRRQQQQLLIQQQQQQQQQQTQQNHMS

binding: binds
B4: polyphosphoinositide phosphatase (enzyme, UniProt Q92562 1-907)
chain: MPTAAAPIISSVQKLVLYETRARYFLVGSNNAETKYRVLKIDRTEPKDLVIIDDRHVYTQQEVRELLGRLDLGNRTKMGQKGSSGLFRAVSAFGVVGFVRFLEGYYIVLITKRRKMADIGGHAIYKVEDTNMIYIPNDSVRVTHPDEARYLRIFQNVDLSSNFYFSYSYDLSHSLQYNLTVLRMPLEMLKSEMTQNRQESFDIFEDEGLITQGGSGVFGICSEPYMKYVWNGELLDIIKSTVHRDWLLYIIHGFCGQSKLLIYGRPVYVTLIARRSSKFAGTRFLKRGANCEGDVANEVETEQILCDASVMSFTAGSYSSYVQVRGSVPLYWSQDISTMMPKPPITLDQADPFAHVAALHFDQMFQRFGSPIIILNLVKEREKRKHERILSEELVAAVTYLNQFLPPEHTIVYIPWDMAKYTKSKLCNVLDRLNVIAESVVKKTGFFVNRPDSYCSILRPDEKWNELGGCVIPTGRLQTGILRTNCVDCLDRTNTAQFMVGKCALAYQLYSLGLIDKPNLQFDTDAVRLFEELYEDHGDTLSLQYGGSQLVHRVKTYRKIAPWTQHSKDIMQTLSRYYSNAFSDADRQDSINLFLGVFHPTEGKPHLWELPTDFYLHHKNTMRLLPTRRSYTYWWTPEVIKHLPLPYDEVICAVNLKKLIVKKFHKYEEEIDIHNEFFRPYELSSFDDTFCLAMTSSARDFMPKTVGIDPSPFTVRKPDETGKSVLGNKSNREEAVLQRKTAASAPPPPSEEAVSSSSEDDSGTDREEEGSVSQRSTPVKMTDAGDSAKVTENVVQPMKELYGINLSDGLSEEDFSIYSRFVQLGQSQHKQDKNSQQPCSRCSDGVIKLTPISAFSQDNIYEVQPPRVDRKSTEIFQAHIQASQGIMQPLGKEDSSMYREYIRNRYL

binding: binds
B5: Rab11 family-interacting protein 1 (Rab11FIP1) (protein, UniProt Q6WKZ4 1-1283)
chain: MSLMVSAGRGLGAVWSPTHVQVTVLQARGLRAKGPGGTSDAYAVIQVGKEKYATSVSERSLGAPVWREEATFELPSLLSSGPAAAATLQLTVLHRALLGLDKFLGRAEVDLRDLHRDQGRRKTQWYKLKSKPGKKDKERGEIEVDIQFMRNNMTASMFDLSMKDKSRNPFGKLKDKIKGKNKDSGSDTASAIIPSTTPSVDSDDESVVKDKKKKSKIKTLLSKSNLQKTPLSQSMSVLPTSKPEKVLLRPGDFQSQWDEDDNEDESSSASDVMSHKRTASTDLKQLNQVNFTLPKKEGLSFLGGLRSKNDVLSRSNVCINGNHVYLEQPEAKGEIKDSSPSSSPSPKGFRKKHLFSSTENLAAGSWKEPAEGGGLSSDRQLSESSTKDSLKSMTLPSYRPAPLVSGDLRENMAPANSEATKEAKESKKPESRRSSLLSLMTGKKDVAKGSEGENPLTVPGREKEGMLMGVKPGEDASGPAEDLVRRSEKDTAAVVSRQGSSLNLFEDVQITEPEAEPESKSEPRPPISSPRAPQTRAVKPRLEVSPEAQPTARLPSPTDSPSSLPPLPSSSGQASVPSELGHGADTQSSESPSVFSSLSSPIAAPISTSTPIESWPLVDRGQAKSEGPPLLPKAELQTESLTPVPNSGSSALGSLFKQPSFPANKGTEDSLMGRTRETGTEKNTSSLELEESLPEQPETGRQEEELPRFPCKKQDYSPSSGEAQEVPFALSLSSDGAVSPVGELAAGGDRDLESQAGSLVESKARDAAEEVAPPLPMGASVPSIDSMMRKLEEMGLNLRKDQKKTKKRVSFSEQLFTEEAVAGAALLVEGHSSCPQELNPAWSVAGNASDGEPPESPHAEDSERESVTTPGPATCGAPASPADHLLLPSQEESFSEVPMSEASSAKDTPLFRMEGEDALVTQYQSKASDHEGLLSDPLSDLQLVSDFKSPIMADLNLSLPSIPEVASDDERIDQVEDDGDQVEDDGETAKSSTLDIGALSLGLVVPCPERGKGPSGEADRLVLGEGLCDFRLQAPQASVTAPSEQTTEFGIHKPHLGKSSSLDKQLPGPSGGEEEKPMGNGSPSPPPGTSLDNPVPSPSPSEIFPVTHSFPSSAHSDTHHTSTAESQKKATAEGSAGRVENFGKRKPLLQAWVSPSETHPVSAQPGAGTGSAKHRLHPVKPMNAMATKVANCSLGTATIISENLNNEVMMKKYSPSDPAFAYAQLTHDELIQLVLKQKETISKKEFQVRELEDYIDNLLVRVMEETPNILRIPTQVGKKAGKM

binding: binds
B6: GAB1 (protein, UniProt Q13480 1-694)
chain: MSGGEVVCSGWLRKSPPEKKLKRYAWKRRWFVLRSGRLTGDPDVLEYYKNDHAKKPIRIIDLNLCQQVDAGLTFNKKEFENSYIFDINTIDRIFYLVADSEEEMNKWVRCICDICGFNPTEEDPVKPPGSSLQAPADLPLAINTAPPSTQADSSSATLPPPYQLINVPPHLETLGIQEDPQDYLLLINCQSKKPEPTRTHADSAKSTSSETDCNDNVPSHKNPASSQSKHGMNGFFQQQMIYDSPPSRAPSASVDSSLYNLPRSYSHDVLPKVSPSSTEADGELYVFNTPSGTSSVETQMRHVSISYDIPPTPGNTYQIPRTFPEGTLGQTSKLDTIPDIPPPRPPKPHPAHDRSPVETCSIPRTASDTDSSYCIPTAGMSPSRSNTISTVDLNKLRKDASSQDCYDIPRAFPSDRSSSLEGFHNHFKVKNVLTVGSVSSEELDENYVPMNPNSPPRQHSSSFTEPIQEANYVPMTPGTFDFSSFGMQVPPPAHMGFRSSPKTPPRRPVPVADCEPPPVDRNLKPDRKVKPAPLEIKPLPEWEELQAPVRSPITRSFARDSSRFPMSPRPDSVHSTTSSSDSHDSEENYVPMNPNLSSEDPNLFGSNSLDGGSSPMIKPKGDKQVEYLDLDLDSGKSTPPRKQKSSGSGSSVADERVDYVVVDQQKTLALKSTREAWTDGRQSTESETPAKSVK
